Assay results reported in paper PMC7442782, “Molecular basis for DNA repair synthesis on short gaps by mycobacterial Primase-Polymerase C” (Nature Communications, 2020).
Substitutions are numbered along the chain they refer to. The exact form of at least one protein or probe is not confirmed. A weaker result is weaker than the reference pair of the same experiment. Where a protein sequence is shown, tags need not be part of it.

Columns and labels:
Assay in all cases: 2-aminopurine fluorescence (base flipping)
Prim-PolC WT = target: T1, Prim-PolC WT (UniProt A0R5T1); settings: 5 mM Ca2+, 250 uM ATP, 2-aminopurine at position 15 of primer oKZ282 (written A), 5'-phosphate on downstream strand, Crystals: 0.05 M Na cacodylate pH 6.5, 2 M ammonium sulfate, 0.01 M MnCl2, 285 K, 300 uM protein:600 uM DNA, 2-AP assay: 0-1 uM protein, 1 uM DNA, recombinant protein, protein details: N-terminal His, label: 2-AP
T1 sequence (looked up, limits assumed): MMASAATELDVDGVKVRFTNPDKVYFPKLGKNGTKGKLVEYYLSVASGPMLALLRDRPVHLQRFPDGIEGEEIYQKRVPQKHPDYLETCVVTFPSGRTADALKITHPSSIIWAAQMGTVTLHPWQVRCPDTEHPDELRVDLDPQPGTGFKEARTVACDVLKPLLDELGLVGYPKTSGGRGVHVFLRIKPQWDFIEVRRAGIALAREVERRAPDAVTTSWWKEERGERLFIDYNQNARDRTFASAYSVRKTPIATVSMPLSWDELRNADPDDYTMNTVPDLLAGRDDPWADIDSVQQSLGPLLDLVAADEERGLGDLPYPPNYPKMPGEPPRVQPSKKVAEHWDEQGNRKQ

Prim-PolC K324A = target: T2, Prim-PolC K324A (UniProt A0R5T1); settings: 5 mM Ca2+, 250 uM ATP, 2-aminopurine at position 15 of primer oKZ282 (written A), 5'-phosphate on downstream strand, Crystals: 0.05 M Na cacodylate pH 6.5, 2 M ammonium sulfate, 0.01 M MnCl2, 285 K, 300 uM protein:600 uM DNA, 2-AP assay: 0-1 uM protein, 1 uM DNA, recombinant protein, protein details: N-terminal His, label: 2-AP
T2 sequence (looked up, limits assumed): T1 sequence (looked up, limits assumed) with K324A

Prim-PolC N321A = target: T3, Prim-PolC N321A (UniProt A0R5T1); settings: 5 mM Ca2+, 250 uM ATP, reduced signal, 2-aminopurine at position 15 of primer oKZ282 (written A), 5'-phosphate on downstream strand, Crystals: 0.05 M Na cacodylate pH 6.5, 2 M ammonium sulfate, 0.01 M MnCl2, 285 K, 300 uM protein:600 uM DNA, 2-AP assay: 0-1 uM protein, 1 uM DNA, recombinant protein, protein details: N-terminal His, label: 2-AP
T3 sequence (looked up, limits assumed): T1 sequence (looked up, limits assumed) with N321A

Sequence | binding result (Prim-PolC WT) | binding result (Prim-PolC K324A; slightly reduced signal) | binding result (Prim-PolC K324A; very modest increase) | binding result (Prim-PolC N321A)
AGTCGCATAGTGTAGTCATGTCGATTCGCCATAG / CTATGAGCGAATCGAC / TACACTATGCGACT [2-AP 5-nt gap substrate] | binds more weakly |  |  | 
AGTCGCATAGTGTAGTCATGTCGATTCGCCATAG / CTATGAGCGAATCGAC / CGACTACACTATGCGACT [2-AP 1-nt gap substrate] |  | binds more weakly |  | 
AGTCGCATAGTGTAGTCATGTCGATTCGCCATAG / CTATGAGCGAATCGAC / ACTACACTATGCGACT [2-AP 3-nt gap substrate] | binds more weakly |  | binds more weakly | binds more weakly
